# Data as given in PubChem BioAssay AID686943 (Drosophila RNAi Screening Center, 2013).
# Purpose: 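Search across the genome for regulators of signalling from receptor tyrosine kinase to ERK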 (primary screen)
# Cells: Drosophila S2R+ haemocyte-like cells expressing YFP-tagged ERK (Rolled)
# Reagent: long dsRNA against Drosophila genes
# Treatment: insulin stimulation versus unstimulated cells; dose and duration not given
# Read-out: 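Antibody staining for doubly phosphorylated ERK divided by ERK-YFP signal, as plate z-scores, in insulin-treated and untreated cells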
# Scale: replicate 1, z-score of dpERK with insulin and replicate 2, z-score of dpERK with insulin: higher = more active ERK per ERK-YFP after insulin; replicate 1, z-score of dpERK under basal conditions: higher = more basal active ERK per ERK-YFP; replicate 1, z-score of ERK-YFP with insulin: higher = more YFP-tagged ERK signal
# The deposit covers about 23,000 reagents; shown is an unselected part of those with a known target gene and a result. 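Extra replicates exist only for a retested subset of genes; insulin dose and duration not given; both raised and lowered dpERK matter.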 A plus sign joins genes that one reagent is predicted to hit. Not stated in the record: the amount of reagent, the time to read-out.
target gene,DRSC id,"replicate 1, z-score of dpERK with insulin","replicate 2, z-score of dpERK with insulin","replicate 1, z-score of dpERK under basal conditions","replicate 1, z-score of ERK-YFP with insulin"
Gapdh2 (Glyceraldehyde 3 phosphate dehydrogenase 2),DRSC20246,1.42,1.48,-0.47,-1.1
alpha-Est3 (alpha-Esterase-3),DRSC12615,-0.02,0.39,0.98,0.11
mys (myospheroid),DRSC18799,0.34,0.26,-1.43,-0.1
"hgo (homogentisate 1,2-dioxygenase)",DRSC03544,1,-0.32,0.53,1.02
Spc105R (Spc105-related),DRSC11663,-0.66,-2.76,-3.68,-3.71
CG2267,DRSC15435,-0.29,0,-0.79,-0.1
Cpr47Eb (Cuticular protein 47Eb),DRSC06345,0.84,-0.07,0.77,0.25
elB (elbow B),DRSC03527,0.26,0.17,-0.44,-0.3
scpr-A + scpr-C + scpr-B,DRSC15715,-0.59,-0.15,0.5,0.35
CG18581,DRSC10324,0.83,1.15,-0.05,-0.16
Osi24 (Osiris 24),DRSC12275,0.41,0.41,0.4,0.49
Vps51 (Vacuolar protein sorting 51),DRSC06519,0.4,0.09,-0.55,-0.19
Lmx1a (LIM homeobox transcription factor 1 alpha),DRSC09726,0.18,-0.55,0.98,0.81
Lmx1a (LIM homeobox transcription factor 1 alpha),DRSC10275,-3.97,-2.67,-1.04,-2.01
CG7298,DRSC10802,-0.78,-0.17,-0.01,0.9
CG14434,DRSC17927,0.63,0.29,1.01,0.17
CSN1a (COP9 signalosome subunit 1a),DRSC01951,1.59,0.3,1.93,-0.38
sicily (severe impairment of CI with lengthened youth),DRSC19704,0.01,0.99,-0.39,0.41
Ccs (Copper chaperone for superoxide dismutase),DRSC06692,0.25,0.06,0.64,0.24
krimp (krimper),DRSC06578,0.44,0.05,-0.39,0.3
CG3021,DRSC18165,-0.06,0.58,0.57,0.13
CG3021,DRSC18652,1.54,0.73,-0.3,-0.35
Tsp29Fa (Tetraspanin 29Fa),DRSC03232,-0.7,0,-0.23,0.76
CG5002,DRSC06911,0.34,0.01,-1.55,0.15
"E(spl)m4-BFM (Enhancer of split m4, Bearded family member)",DRSC16992,1.16,-0.21,0.14,0.15
CG6329,DRSC06976,0.78,0.34,0.68,0.64
insc (inscuteable),DRSC04695,0.88,2,0.85,-0.78
CG16824,DRSC02525,1.05,2.05,0.65,-0.25

Sorted by “replicate 1, z-score of ERK-YFP with insulin” (low to high): 7 of the entries above.
target gene,DRSC id,"replicate 1, z-score of dpERK with insulin","replicate 2, z-score of dpERK with insulin","replicate 1, z-score of dpERK under basal conditions","replicate 1, z-score of ERK-YFP with insulin"
Spc105R (Spc105-related),DRSC11663,-0.66,-2.76,-3.68,-3.71
elB (elbow B),DRSC03527,0.26,0.17,-0.44,-0.3
CG18581,DRSC10324,0.83,1.15,-0.05,-0.16
CG2267,DRSC15435,-0.29,0,-0.79,-0.1
Cpr47Eb (Cuticular protein 47Eb),DRSC06345,0.84,-0.07,0.77,0.25
scpr-A + scpr-C + scpr-B,DRSC15715,-0.59,-0.15,0.5,0.35
Osi24 (Osiris 24),DRSC12275,0.41,0.41,0.4,0.49

More results follow:
target gene,DRSC id,"replicate 1, z-score of dpERK with insulin","replicate 2, z-score of dpERK with insulin","replicate 1, z-score of dpERK under basal conditions","replicate 1, z-score of ERK-YFP with insulin"
Drep2 (DNA fragmentation factor-related protein 2),DRSC07528,-0.41,0.1,0.12,0.31
Pp2C1 (Protein phosphatase 2C),DRSC18699,0.4,1.14,-0.03,0.52
Rx (Retinal Homeobox),DRSC03837,0.4,0.26,0.16,0.73
Rx (Retinal Homeobox),DRSC04652,1.01,0.52,1.63,-0.44
Pcl (Polycomblike),DRSC07503,0.04,0.18,0.37,1.16
fng (fringe),DRSC11455,-0.03,-0.14,0.11,-0.07
fng (fringe),DRSC11887,0.08,0.2,0.6,-0.09
fng (fringe),DRSC21935,-0.47,-0.39,0.59,1.76
Rpn7 (Regulatory particle non-ATPase 7),DRSC16841,-5.2,-3.36,-4.5,1.39
CG14370,DRSC14832,-0.1,0.4,1.16,-0.72
CG11686,DRSC14350,0.48,0.49,0.21,0.3
ncd (non-claret disjunctional),DRSC17012,-0.88,0.01,0.75,-2.98
CG3184,DRSC18289,-0.25,0.41,-0.49,0.09
CG12012,DRSC08220,0.22,-0.19,0.16,0.46
mam (mastermind),DRSC05468,-5.51,-2.01,-2.63,-5.5
mam (mastermind),DRSC07648,-2.91,-4.29,-3.78,-3.08
spag4 (sperm-associated antigen 4),DRSC02973,0.22,-0.22,-0.01,0.51
CheB42c (Chemosensory protein B 42c),DRSC04972,0.49,0.06,0.43,0.33
Mal-B1 (Maltase B1),DRSC02416,1.41,0.02,-1.72,2.41
Kif3C (Kinesin family member 3C),DRSC17209,-0.06,0.35,-0.37,-0.24
Kif3C (Kinesin family member 3C),DRSC17210,-0.36,0.41,0.17,0.6
Gr57a (Gustatory receptor 57a),DRSC06401,0.39,0.76,-0.25,0.07
CG3123,DRSC00570,0.49,-0.03,-0.4,-0.69
CG12376,DRSC06144,0.37,0.11,-0.17,0.18
Dnaaf6 (Dynein axonemal assembly factor 6),DRSC10473,0.37,-1.23,-0.08,-0.31
Ocrl (Oculocerebrorenal syndrome of Lowe),DRSC18576,0.11,0.24,0.14,-2.58
CG11858,DRSC14412,1.8,-0.15,0.67,0.03
CG9346,DRSC04542,0.53,0.73,-0.64,-4.15
CG11322,DRSC02142,-0.31,0.74,2.1,-0.19
